“And” between values parts separate entries of the source, which are not always exact repeats. Equal values may be shown once. The list shows a part of the results. These are further read-outs of the screen, such as a control signal, another cell line or another target. No call is given for them. Compounds called inactive in the main read-out are mostly missing here. Words in brackets tell the shape of the fitted curve; partial curves, single points and poor fits give uncertain potencies.
Test: qHTS Assay for Lipid Storage Modulators in Drosophila S3 Cells;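 for cell number change: cells counted by Cell Tracker Red CMTPX staining in the red channel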
Details: BODIPY lipid droplet fluorescence, 18-24 h; for cell number change: measured here: cell count max response, cells fed with added oleic acid
Method in brief: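 Drosophila S3 cells got compounds at several concentrations plus oleic acid (400 uM solution). Laser-scanning cytometry with 488 nm excitation read lipid droplets at 500-530 nm and cells at 575-640 nm. Percent activity was relative to 20 uM Triacsin C.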

[1] = measured here: lipid fluorescence (Fed channel) AC50, cells fed with added oleic acid
[2] = measured here: cell number channel AC50, cells fed with added oleic acid

Row | SMILES | AC50 [1] | cell number change | AC50 [2]
1 | CC(=O)N(C1=NCCCS1)c1ccc(F)cc1 | 29.1 µM [falling, single point] | – | –
2 | Cc1cc(C)cc(N2C(=O)NC(=O)/C(=C/c3cccn3-c3ccc(Cl)cc3)C2=O)c1 | 5.8 µM [falling, full curve] | -44.1% | 10.3 µM [falling, partial curve]
3 | Cc1cc(S(=O)(=O)NCc2ccccc2)ccc1OCC(=O)N1CCN(C)CC1 | 0.116 µM [falling, full curve, poor fit] | – | –
4 | Cc1ccsc1-c1nc(CSCC(=O)N2CCC3(CC2)OCCO3)c(C)o1 | 29.1 µM [falling, single point] | -13.8% | –
5 | COc1ccc(C2SCC(=O)Nc3c2c(=O)[nH]n3C2CCCCCC2)cc1OC (stereo unspecified) | – | -10.3% | –
6 | COc1ccc(CN2CCN(C(=O)COc3ccc4ccccc4c3)CC2)c(OC)c1 | 14.6 µM [rising, partial curve, poor fit] | 0.917% | –
7 | O=c1[nH]c(=S)n(-c2ccccc2F)c(O)c1C=NCc1ccco1 | – | -24.9% | –
8 | O=[N+]([O-])c1cccc2c([N+](=O)[O-])cccc12 | – | 16.9% | –
9 | COC(=O)C1=C(c2cccc(C#N)c2)C[C@@H]2CC[C@H]1N2C(=O)NCc1ccc(F)cc1 | – | 2.76% | –
10 | O=C(C1CCCO1)N1CCC2(CC1)OCCO2 (stereo unspecified) | 3.26 µM [falling, full curve, poor fit] | 7.82% | –
11 | CCN1CCN(Cc2cc(OC)c(OC)cc2[N+](=O)[O-])CC1 | – | 3.29% | 6.51 µM [rising, single point]
12 | CCCCn1c(O)c(C(C)=NCC2CCCO2)c(=O)[nH]c1=O (stereo unspecified) | – | -8.49% | –
13 | CNc1ccc2nc3ccccc3[n+](C)c2c1 | 29.1 µM [falling, single point] | -89.6% | 29.1 µM [falling, single point]
14 | c1ccc(CNC2=NCCS2)cc1 | – | 6.47% | –
15 | O=C1NC(=O)C(=CN2CCc3ccccc32)C(=O)N1 | – | 0.148% | –
16 | CCc1ccc(OCC(=O)N2CCN(CC(=O)Nc3ccccc3Cl)CC2)cc1 | 25.9 µM [rising, single point] | 20.5% | –
17 | C[C@H]1[C@@H](c2ccccc2)O[C@@H](c2ccccc2Br)N1C | 6.51 µM [falling, single point] | -16.5% | –
18 | CCN(CC)C(=O)Oc1ccc(OC(=O)N(CC)CC)cc1 | – | – | 0.58 µM [falling, partial curve, poor fit]
19 | Cc1oc(-c2ccccc2)nc1CN1C(=O)C(C)N=C(c2ccccc2F)c2cc(Cl)ccc21 (stereo unspecified) | 1.84 µM [rising, partial curve] | 23.8% | –
20 | O=C1NC(=O)N(Cc2ccccc2)C(=O)/C1=C/c1cnc(-c2ccccc2)nc1 | 0.731 µM [rising, full curve, poor fit] | 14.8% | –

Row | SMILES | AC50 [1] | cell number change | AC50 [2]
21 | COC(=O)C1=C(c2cccc(C#N)c2)C[C@@H]2CC[C@H]1N2C(=O)N1CCOCC1 | – | -44.3% | 29.1 µM [falling, single point]
22 | COC(=O)C1=C(c2ccc(OC(F)(F)F)cc2)C[C@@H]2CC[C@H]1N2C(=O)N1CCOCC1 | 29.1 µM [falling, single point] | -5.42% | –
23 | CCN1CCN(c2ccc([N+](=O)[O-])cc2C#N)CC1 | – | 40.7% | 14.6 µM [rising, single point]
24 | CSc1ncc(/C=C2/C(=O)NC(=O)N(c3ccc(Cl)cc3)C2=O)cn1 | 3.66 µM [rising, partial curve, poor fit] | 36% | 0.58 µM [rising, full curve, poor fit]
25 | O=S(=O)(c1ccc(Cl)cc1)N1CC1c1ccccc1 (stereo unspecified) | 1.03 µM [falling, full curve] | -68.8% | 1.03 µM [falling, full curve]
26 | C[C@]12CCC3[C@@H](CCC4=CC(=O)CC[C@@]43CO)C1CCC2=O (stereo partly specified) | – | 45.8% | 0.291 µM [rising, full curve, poor fit]
27 | O=C1CCN(C(=O)Cc2ccccc2[N+](=O)[O-])CC1 | 6.51 µM [rising, single point] | -6.95% | –
28 | CCn1c(O)c(/C(C)=N/N2CCCCC2c2cccnc2)c(=O)[nH]c1=S (stereo unspecified) | 5.17 µM [rising, full curve, poor fit] | 41.2% | 29.1 µM [rising, single point]
29 | CN1CCN(c2ccc(F)cc2N)CC1 | 4.11 µM [falling, single point] | -14.5% | –
30 | CCNC(=O)NC(=O)C(C)OC(=O)c1c(C)nn(Cc2ccccc2Cl)c1Cl (stereo unspecified) | 10.3 µM [falling, partial curve] | 4.7% | –
31 | CC12CN3CCN(C1)CC(C)(C3)C2=NO | 4.61 µM [falling, full curve, poor fit] | -26.2% | –
32 | COc1ccc(N=Cc2c(O)n(C)c(=O)[nH]c2=O)cc1 | 16.4 µM [falling, single point] | 3.86% | –
33 | S=c1[nH]c2ccccc2[nH]1 | – | 24.8% | –
34 | CCN(CC)CCNCc1nc2ccccc2c(=O)n1-c1ccc(F)cc1 | 0.013 µM [falling, full curve, poor fit] | 5.71% | –
35 | C[N+]1(C)C2CCC1CC(OC(=O)C(CO)c1ccccc1)C2 (stereo unspecified) | – | 16.6% | 2.59 µM [rising, partial curve]
36 | O=C(CNC1CCCCC1)N1CCC2(CC1)OCCO2 | 1.84 µM [falling, partial curve] | 9.64% | –
37 | Cc1ccccc1-n1c(O)c(C=Nc2ccc3c(c2)OCO3)c(=O)[nH]c1=O | 0.103 µM [rising, full curve, poor fit] | 4.35% | –
38 | CCOP(=O)(OCC)c1cccc(P(=O)(c2ccccc2)c2ccccc2)c1O | – | – | 3.26 µM [falling, partial curve]
39 | Cc1ccc2c(c1)CC1(CN2C)C(=O)NC(=O)N(CCc2ccccc2)C1=O (stereo unspecified) | 3.26 µM [rising, partial curve] | 52.2% | 1.3 µM [rising, partial curve]
40 | COC(=O)C1=C(c2ccc(OCc3ccccc3)cc2)C[C@@H]2CC[C@H]1N2C(=O)NCc1ccc(N(C)C)cc1 | – | -38.7% | 20.6 µM [falling, partial curve, poor fit]

Row | SMILES | AC50 [1] | cell number change | AC50 [2]
41 | CC(Cc1ccccc1)NC(=O)C(c1ccc(N)cc1)c1ccc(N)cc1 (stereo unspecified) | – | 8.07% | –
42 | O=c1[nH]c(=O)n(C2CCCCCC2)c(O)c1C=NC1CCN(Cc2ccccc2)CC1 | 6.51 µM [rising, single point] | -0.526% | –
43 | CCN1CCN(C(=O)COc2ccc(S(=O)(=O)N3CCOCC3)cc2Cl)CC1 | – | 7.69% | –
44 | CCN(CC)CCN=Cc1c(O)n(Cc2ccccc2)c(=O)[nH]c1=O | 13 µM [falling, partial curve, poor fit] | -51.5% and -47.2% | 14.6 µM [falling, partial curve] and 25.9 µM [falling, single point]
45 | O=C(c1cc(-c2ccccc2)on1)N1CCC2(CC1)OCCO2 | – | 4.07% | –
46 | Cc1ccc(N2C(=O)NC(=O)/C(=C\c3ccc([N+](=O)[O-])o3)C2=O)cc1 | 14.6 µM [falling, partial curve] | -43.9% | 0.164 µM [falling, full curve]
47 | Fc1ccc(Cn2nnnc2C(c2ccc(Cl)cc2)N2CC=C(c3ccc(F)cc3)CC2)cc1 (stereo unspecified) | 20.6 µM [rising, single point] | 121% | 29.1 µM [rising, single point]
48 | CC(C)(C)C(O)C(Oc1ccc(Cl)cc1)n1cncn1 (stereo unspecified) | 2.31 µM [rising, full curve] | 55.9% | 2.06 µM [rising, full curve]
49 | CC1(c2ccccc2)NCCN2C(=O)CSC21 (stereo unspecified) | – | 34.3% | 29.1 µM [rising, single point]
50 | COC(=O)C1=C(c2ccc(-c3ccccc3)c(F)c2)C[C@@H]2CC[C@H]1N2C(=O)NC1CCCCC1 | 1.16 µM [falling, partial curve] | -5.17% | –
51 | O=C1Nc2ccccc2/C1=C/c1nc2ccccc2c(=O)n1-c1ccc(O)cc1 | 29.1 µM [falling, single point] | -37.6% | 29.1 µM [falling, single point]
52 | c1cncc(C2CC(c3cccs3)n3ncnc3N2)c1 (stereo unspecified) | 0.259 µM [rising, full curve] | – | 0.731 µM [rising, partial curve]
53 | Cc1ccccc1-n1c(C)nc2sccc2c1=O | – | -6.98% | –
54 | CCc1nnc(NS(=O)(=O)c2ccc(N=Cc3c(O)n(-c4ccc(Cl)cc4)c(=O)[nH]c3=O)cc2)s1 | 16.4 µM [falling, single point] | -20.1% | –
55 | CC(C)n1c(=O)c(C=Nc2ccc(Br)cc2)c(O)n(Cc2ccco2)c1=O | 5.8 µM [rising, full curve, poor fit] | – | –
56 | Cc1cccc([N+](=O)[O-])c1 | 0.103 µM [rising, single point] | 17.6% | 0.164 µM [falling, full curve]
57 | COc1ccccc1CCNC1CCCC(C)C1 (stereo unspecified) | 0.0651 µM [falling, full curve, poor fit] | -4.61% | –
58 | O=c1c2ccccc2[se]n1-c1ccccc1 | 16.4 µM [falling, partial curve] | -84.9% | 20.6 µM [falling, partial curve]
59 | CN1CCN(c2ccccc2N)CC1 | 6.51 µM [falling, single point] | 61.6% | 16.4 µM [rising, single point]
60 | CCOC(=O)N1CCN(C(=O)C(CC(C)C)NS(=O)(=O)c2ccc3c(c2)oc(=O)n3C)CC1 (stereo unspecified) | – | – | 10.3 µM [rising, partial curve]

A section of the results above, for reference:
Row | SMILES | AC50 [1] | cell number change | AC50 [2]
51 | O=C1Nc2ccccc2/C1=C/c1nc2ccccc2c(=O)n1-c1ccc(O)cc1 | 29.1 µM [falling, single point] | -37.6% | 29.1 µM [falling, single point]
52 | c1cncc(C2CC(c3cccs3)n3ncnc3N2)c1 (stereo unspecified) | 0.259 µM [rising, full curve] | – | 0.731 µM [rising, partial curve]
53 | Cc1ccccc1-n1c(C)nc2sccc2c1=O | – | -6.98% | –

Source: PubChem BioAssay AID2685 (National Center for Advancing Translational Sciences (NCATS), 2010)
